Data reported in PubChem BioAssay AID2685 (National Center for Advancing Translational Sciences (NCATS), 2010).
The other results are listed elsewhere or left out. These are further read-outs of the screen, such as a control signal, another cell line or another target. No call is given for them. Most of these compounds were active or inconclusive in the main read-out, so they are no random draw. Words in brackets tell the shape of the fitted curve; partial curves, single points and poor fits give uncertain potencies.

Experiment: qHTS Assay for Lipid Storage Modulators in Drosophila S3 Cells;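 on cell number change: cells counted by Cell Tracker Red CMTPX staining in the red channel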
Conditions: BODIPY lipid droplet fluorescence, 18-24 h; for cell number change: measured here: cell count max response, cells fed with added oleic acid
How it was run: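 Drosophila S3 cells loaded with oleic acid (400 uM, as added) and compounds at several concentrations; lipid droplets imaged by 488-nm laser-scanning cytometry, 500–530 nm intensity and object ratio to cell channel. Percent activity normalized to 20 uM Triacsin C.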

[1] = measured here: cell number channel AC50, cells fed with added oleic acid
[2] = measured here: lipid fluorescence (Fed channel) AC50, cells fed with added oleic acid

| Compound | cell number change [%] | AC50 [1] | AC50 [2] |
| --- | --- | --- | --- |
| O=C(COc1ccccc1[N+](=O)[O-])Nc1ccc(NC(=O)c2cc3ccccc3o2)cc1 | -16 | 6.51 µM [falling, single point] | 6.51 µM [falling, single point] |
| CCOC(=O)c1cc(-c2ccc(OC)cc2OC)nn1-c1ccc(C(=O)O)cc1 | -22.5 | – | 6.51 µM [falling, single point] |
| COC(=O)c1c(NC(=O)CCl)sc(C(=O)N2CCOCC2)c1C | – | – | 29.1 µM [falling, single point] |
| Cc1ccc(S(=O)(=O)Nn2c(O)c(C=C3N=c4ccccc4=N3)sc2=S)cc1 | -49.3 | 29.1 µM [falling, single point] | – |
| O=[N+]([O-])c1ccc(NC2CCCC2)cc1 | 16.5 | – | 0.206 µM [falling, partial curve, poor fit] |
| Cn1c[n+](C)cc1/C=N/O | 11.8 | – | 9.2 µM [rising, partial curve, poor fit] |
| COc1ccc(CCN2C(=NC(=O)CCC(=O)O)SC3CS(=O)(=O)CC32)cc1 (stereo not given) | 8.16 | – | 29.1 µM [rising, single point] |
| COc1cccc(-c2cc3c(-n4cccc4)ncnc3o2)c1 | -10 | – | 3.26 µM [falling, single point] |
| O=C(Cc1ccc([N+](=O)[O-])cc1)Nc1ccc(C(=O)N2CCOCC2)cc1 | 37.9 | 29.1 µM [rising, partial curve] | 13 µM [rising, partial curve, poor fit] |
| Cc1cccc(NC(=O)CCN2CCC(C(N)=O)CC2)c1 | 5.77 | – | – |
| Cc1ccc(C(=O)OC(C)C(=O)NC2CCCCC2)cc1S(=O)(=O)N1CCCCC1 (stereo not given) | 1.27 | 6.51 µM [falling, single point] | 6.51 µM [falling, single point] |
| COc1ccc(OCCC(=O)OCc2c(C)noc2C)cc1 | 5.69 | – | 1.64 µM [falling, partial curve] |
| O=C(Cc1coc(-c2ccc(F)cc2)n1)NCc1ccccc1 | 6.56 | – | 6.51 µM [falling, partial curve, poor fit] |
| CC(C)(C)c1ccc(OCCC(=O)OCC(=O)NC(=O)NC2CCCC2)cc1 | -1.5 | – | 29.1 µM [falling, single point] |
| CN1CCN(C2=CC3=CC(=C(C#N)C#N)CCC3CC2)CC1 (stereo not given) | -98.1 | 1.84 µM [falling, partial curve] | 0.651 µM [falling, full curve] |
| O=C(CCc1nc2ccccc2[nH]1)Nc1ccccc1F | -34.7 | 16.4 µM [falling, partial curve, poor fit] | 18.4 µM [falling, partial curve, poor fit] |
| CCc1ccc(NC(=O)C2CCCN(S(=O)(=O)c3ccc4[nH]c(=O)ccc4c3)C2)cc1 (stereo not given) | 34 | 0.731 µM [falling, partial curve] | – |
| Cc1cccc(OC(C)C(=O)N2CCc3ccccc3C2)c1 (stereo not given) | 6.04 | – | 9.2 µM [rising, partial curve] |
| O=C1NC(Cc2ccccc2)c2nc3ccc(Cl)cc3c(=O)n2-c2ccc(Cl)cc21 (stereo not given) | 4.67 | – | – |

Of the compounds above, 4 contain an aryl methoxy group.

| Compound | cell number change [%] | AC50 [1] | AC50 [2] |
| --- | --- | --- | --- |
| CCOC(=O)c1cc(-c2ccc(OC)cc2OC)nn1-c1ccc(C(=O)O)cc1 | -22.5 | – | 6.51 µM [falling, single point] |
| COc1ccc(CCN2C(=NC(=O)CCC(=O)O)SC3CS(=O)(=O)CC32)cc1 (stereo not given) | 8.16 | – | 29.1 µM [rising, single point] |
| COc1cccc(-c2cc3c(-n4cccc4)ncnc3o2)c1 | -10 | – | 3.26 µM [falling, single point] |
| COc1ccc(OCCC(=O)OCc2c(C)noc2C)cc1 | 5.69 | – | 1.64 µM [falling, partial curve] |

Later entries:

| Compound | cell number change [%] | AC50 [1] | AC50 [2] |
| --- | --- | --- | --- |
| Cc1cccc[n+]1CC(=O)Nc1ccccc1 | 14.9 | – | – |
| CCOP(=O)(OCC)C(NC(=O)Nc1ccc(Cl)c(Cl)c1)c1ccccc1 (stereo not given) | 12.5 | – | 0.651 µM [falling, single point] |
| Cc1cccc(Oc2coc3cc(O)ccc3c2=O)c1 | – | – | 6.51 µM [falling, single point] |
| O=C(NCc1ccc(Cl)cc1)c1cc(=O)nc2sc(-c3ccccc3)nn12 | 13.6 | – | 0.0651 µM [rising, full curve, poor fit] |
| Cc1ccccc1N1CCN(C(=S)c2ccc(-c3cccc([N+](=O)[O-])c3)o2)CC1 | -44.3 | 29.1 µM [falling, single point] | 18.4 µM [falling, partial curve] |
| O=C(CSc1ncn[nH]1)c1ccccc1 | -34.6 | 4.61 µM [falling, full curve] | 1.3 µM [falling, full curve] |
| CC(=O)c1ccccc1NC(=O)c1cc(S(=O)(=O)N2CCOCC2)ccc1N1CCCC1 | 14.7 | – | 14.6 µM [rising, partial curve] |
| Oc1ccccc1CN1CCN(C(c2ccccc2)c2ccccc2)CC1 | 27.2 | – | 20.6 µM [rising, partial curve] |
| CC(=O)COc1ccc2c3c(c(=O)oc2c1C)CCCCC3 | -7.73 | – | 29.1 µM [rising, single point] |
| O=C(NCCC1CCCCN1S(=O)(=O)c1ccccc1)C(=O)NC1CC1 (stereo not given) | -25.1 | – | 0.0651 µM [falling, full curve, poor fit] |
| COc1ccccc1C(=O)N/N=C(\C)CC(=O)Nc1ccc2c(c1)OCCO2 | – | – | 35.5 µM [falling, single point] |
| Cc1ccc(C)c(N2CCN(C(c3ccncc3)c3nnnn3Cc3ccccc3)CC2)c1 (stereo not given) | 23.5 | – | 29.1 µM [falling, single point] |
| O=C(O)c1ccccc1NS(=O)(=O)c1cccc(C(F)(F)F)c1 | -2.51 | – | 0.651 µM [falling, single point] |
| CCOc1ccc(OCCCC(=O)N(C)CC(=O)Nc2ccc(N3CCOCC3)cc2)cc1 | 2.01 | – | – |
| Cc1ccc(S(=O)(=O)NCCCC(=O)N2CCC(C)CC2)cc1 | – | – | 9.2 µM [falling, partial curve] |
| O=C(CSc1ccc(S(=O)(=O)N2CCOCC2)cn1)Nc1ccc(OC(F)F)cc1 | 33.4 | 29.1 µM [rising, single point] | 4.61 µM [rising, partial curve] |
| CCCCn1c(CCn2nc(C)c(Br)c2C)n[nH]c1=S | 41.9 | 2.06 µM [rising, partial curve] | 0.461 µM [rising, single point] |
| C#CCNc1c2c(nc3ncnn13)CC(C)CC2 (stereo not given) | -8.42 | – | 4.61 µM [rising, partial curve, poor fit] |
